Values from PubChem BioAssay AID1259331 (Drosophila RNAi Screening Center, 2017)
Here is a random part of about 3,100 reagents. 126 of all reagents (4.1%) were called active. 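Calls are per reagent; zinc was so toxic that few knock-downs lowered ATP further, so most hits raise ATP.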 Raw values are not corrected between plates. Unmarked entries are inactive. A plus sign joins genes that one reagent is predicted to hit. Not stated in the record: the amount of reagent.

Test: 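Genes whose knock-down changes cell survival under toxic zinc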 (primary screen)
Cells: Drosophila S2R+ cells
Reagents: long dsRNA against Drosophila genes
Timing: 5 days (4 days knock-down, then 1 day zinc)
Conditions: zinc chloride at 15 mM final level for 1 day
Measured: 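Luminescent ATP assay standing in for viability; Z score is the mean over three replicate plates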
Direction: mean Z score: higher = more ATP than other wells, better survival under zinc; ATP luminescence: higher = more ATP, more viable cells
Hit rule: 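Hit when the absolute Z score is greater than 1.5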
Meaning of the calls: active = hit, ATP up or down; inactive = not a hit

For CG13877 + pyx [DRSC08347], how do the results read?
mean Z score: -0.445; ATP luminescence, replicate 1: 63599; ATP luminescence, replicate 2: 61187

What did the screen give for CG31183 [DRSC14403]?
mean Z score: 0.493; ATP luminescence, replicate 1: 45920; ATP luminescence, replicate 2: 67303

For CG31183 [DRSC15554], what was measured?
mean Z score: -0.471; ATP luminescence, replicate 1: 39593; ATP luminescence, replicate 2: 40348

With CG43373 [DRSC09869], what does the deposit list?
mean Z score: 0.0132; ATP luminescence, replicate 1: 74884; ATP luminescence, replicate 2: 61884

Which result is listed for CG13784 [DRSC00974]?
mean Z score: -0.179; ATP luminescence, replicate 1: 38445; ATP luminescence, replicate 2: 42696

An excerpt from the list above, for reference:
CG31183 [DRSC14403] — mean Z score = 0.493; ATP luminescence, replicate 1 = 45920; ATP luminescence, replicate 2 = 67303
CG31183 [DRSC15554] — mean Z score = -0.471; ATP luminescence, replicate 1 = 39593; ATP luminescence, replicate 2 = 40348

The list goes on:
For ppk17 (pickpocket 17) [DRSC02252], what does the deposit list?
mean Z score: 0.943; ATP luminescence, replicate 1: 63067; ATP luminescence, replicate 2: 50686

With ppk17 (pickpocket 17) [DRSC39748], what was measured?
mean Z score: -0.275; ATP luminescence, replicate 1: 52435; ATP luminescence, replicate 2: 61215

For RyR (Ryanodine receptor) [DRSC07543], what was measured?
mean Z score: -0.156; ATP luminescence, replicate 1: 1.05e5; ATP luminescence, replicate 2: 70064

For RyR (Ryanodine receptor) [DRSC39632], how do the results read?
mean Z score: 0.097; ATP luminescence, replicate 1: 65142; ATP luminescence, replicate 2: 58986

With CG1208 [DRSC12190], how do the results read?
mean Z score: -0.486; ATP luminescence, replicate 1: 39508; ATP luminescence, replicate 2: 43214

Which result is listed for CG1208 [DRSC39467]?
mean Z score: -0.344; ATP luminescence, replicate 1: 47257; ATP luminescence, replicate 2: 42731

With ABCB7 (ATP binding cassette subfamily B member 7) [DRSC08603], how do the results read?
mean Z score: 0.701; ATP luminescence, replicate 1: 81722; ATP luminescence, replicate 2: 76445

With CG32547 [DRSC19263], what was measured?
mean Z score: 0.755; ATP luminescence, replicate 1: 91951; ATP luminescence, replicate 2: 88726

For CG32547 [DRSC19474], how do the results read?
mean Z score: -0.0467; ATP luminescence, replicate 1: 31107; ATP luminescence, replicate 2: 31056

With CG34011 [DRSC00888], what does the deposit list?
mean Z score: 0.0531; ATP luminescence, replicate 1: 44669; ATP luminescence, replicate 2: 41668

For CG34011 [DRSC39571], how do the results read?
mean Z score: -0.436; ATP luminescence, replicate 1: 60409; ATP luminescence, replicate 2: 48427
